Reference: the supplement of paper PMC6411743
± gives the standard deviation of the averaged measurements. This is a selection; strong and weak results do not stand in their true shares.

Sequences of proteins named here, by UniProt entry; tags and fusion partners are left off. A change or cut given only in a name is not applied to a line headed by its entry.
UniProt O43818: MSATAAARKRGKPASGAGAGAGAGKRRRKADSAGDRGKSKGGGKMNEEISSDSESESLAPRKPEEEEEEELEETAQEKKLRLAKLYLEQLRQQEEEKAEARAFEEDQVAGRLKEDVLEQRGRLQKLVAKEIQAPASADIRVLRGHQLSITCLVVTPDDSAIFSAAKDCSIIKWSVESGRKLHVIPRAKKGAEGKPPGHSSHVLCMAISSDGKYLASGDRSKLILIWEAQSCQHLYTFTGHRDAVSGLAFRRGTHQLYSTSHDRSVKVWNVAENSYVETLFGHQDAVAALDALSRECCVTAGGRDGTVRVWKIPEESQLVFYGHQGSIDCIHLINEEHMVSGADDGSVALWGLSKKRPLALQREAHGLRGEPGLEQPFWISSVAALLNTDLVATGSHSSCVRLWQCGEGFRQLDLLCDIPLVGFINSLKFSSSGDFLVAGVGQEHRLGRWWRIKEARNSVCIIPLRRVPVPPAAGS
UniProt O60264, whole entry: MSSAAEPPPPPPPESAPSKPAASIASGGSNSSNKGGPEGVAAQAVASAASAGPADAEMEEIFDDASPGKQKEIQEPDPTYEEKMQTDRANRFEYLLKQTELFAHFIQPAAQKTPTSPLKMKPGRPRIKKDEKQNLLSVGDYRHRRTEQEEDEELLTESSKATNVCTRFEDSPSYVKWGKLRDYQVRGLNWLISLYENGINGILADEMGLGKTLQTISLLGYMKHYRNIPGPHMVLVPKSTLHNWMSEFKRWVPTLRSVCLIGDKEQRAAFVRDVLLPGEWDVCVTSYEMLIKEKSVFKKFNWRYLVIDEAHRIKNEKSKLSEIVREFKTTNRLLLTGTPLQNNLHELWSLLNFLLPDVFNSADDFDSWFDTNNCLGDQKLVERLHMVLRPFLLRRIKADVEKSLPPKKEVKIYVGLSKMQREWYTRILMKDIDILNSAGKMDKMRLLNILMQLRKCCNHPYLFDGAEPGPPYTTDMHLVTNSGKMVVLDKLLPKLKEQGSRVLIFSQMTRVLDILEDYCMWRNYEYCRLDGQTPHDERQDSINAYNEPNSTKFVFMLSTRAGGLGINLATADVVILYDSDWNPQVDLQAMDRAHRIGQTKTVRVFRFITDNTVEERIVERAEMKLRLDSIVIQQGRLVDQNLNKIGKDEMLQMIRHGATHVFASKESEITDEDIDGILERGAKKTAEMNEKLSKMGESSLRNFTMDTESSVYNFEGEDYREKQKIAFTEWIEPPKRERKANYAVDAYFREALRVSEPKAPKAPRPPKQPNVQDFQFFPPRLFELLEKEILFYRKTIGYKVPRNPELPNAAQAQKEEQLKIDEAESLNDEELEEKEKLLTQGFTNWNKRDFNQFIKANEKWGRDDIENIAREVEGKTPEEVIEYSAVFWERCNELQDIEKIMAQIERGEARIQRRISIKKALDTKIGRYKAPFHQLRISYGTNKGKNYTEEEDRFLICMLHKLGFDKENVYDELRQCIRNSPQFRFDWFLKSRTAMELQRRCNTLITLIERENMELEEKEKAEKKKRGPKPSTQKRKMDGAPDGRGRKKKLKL
UniProt O15498: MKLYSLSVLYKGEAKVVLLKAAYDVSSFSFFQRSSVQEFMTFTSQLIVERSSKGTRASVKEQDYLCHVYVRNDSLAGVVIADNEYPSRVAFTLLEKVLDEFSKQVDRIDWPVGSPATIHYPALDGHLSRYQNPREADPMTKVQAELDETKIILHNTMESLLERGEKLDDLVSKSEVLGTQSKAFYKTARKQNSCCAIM
UniProt O14867: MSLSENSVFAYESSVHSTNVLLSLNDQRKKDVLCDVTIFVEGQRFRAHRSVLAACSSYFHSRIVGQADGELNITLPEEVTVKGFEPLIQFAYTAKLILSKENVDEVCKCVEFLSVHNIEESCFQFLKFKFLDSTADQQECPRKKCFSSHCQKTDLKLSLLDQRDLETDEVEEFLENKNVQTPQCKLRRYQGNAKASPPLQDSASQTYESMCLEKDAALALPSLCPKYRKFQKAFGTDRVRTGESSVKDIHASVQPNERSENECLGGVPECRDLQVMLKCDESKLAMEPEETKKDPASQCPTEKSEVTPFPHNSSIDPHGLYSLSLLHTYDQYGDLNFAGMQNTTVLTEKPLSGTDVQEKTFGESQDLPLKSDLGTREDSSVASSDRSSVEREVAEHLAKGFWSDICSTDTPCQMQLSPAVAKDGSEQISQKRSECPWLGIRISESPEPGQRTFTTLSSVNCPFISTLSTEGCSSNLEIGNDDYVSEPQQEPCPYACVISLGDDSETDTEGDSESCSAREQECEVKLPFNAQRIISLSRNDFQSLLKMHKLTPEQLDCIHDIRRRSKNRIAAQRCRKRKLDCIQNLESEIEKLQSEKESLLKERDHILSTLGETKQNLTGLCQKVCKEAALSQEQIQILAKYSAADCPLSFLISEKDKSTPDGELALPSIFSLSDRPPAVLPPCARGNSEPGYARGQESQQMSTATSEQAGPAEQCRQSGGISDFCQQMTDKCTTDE
UniProt O14745: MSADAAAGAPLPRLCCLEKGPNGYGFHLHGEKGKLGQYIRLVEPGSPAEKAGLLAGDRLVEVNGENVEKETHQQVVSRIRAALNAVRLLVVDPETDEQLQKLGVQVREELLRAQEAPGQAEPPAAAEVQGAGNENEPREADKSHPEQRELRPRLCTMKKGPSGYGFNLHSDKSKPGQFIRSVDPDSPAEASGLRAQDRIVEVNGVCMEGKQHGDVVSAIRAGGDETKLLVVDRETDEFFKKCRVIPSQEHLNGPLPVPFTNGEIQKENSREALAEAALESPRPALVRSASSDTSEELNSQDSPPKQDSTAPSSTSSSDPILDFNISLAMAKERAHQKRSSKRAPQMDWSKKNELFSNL
UniProt O43324: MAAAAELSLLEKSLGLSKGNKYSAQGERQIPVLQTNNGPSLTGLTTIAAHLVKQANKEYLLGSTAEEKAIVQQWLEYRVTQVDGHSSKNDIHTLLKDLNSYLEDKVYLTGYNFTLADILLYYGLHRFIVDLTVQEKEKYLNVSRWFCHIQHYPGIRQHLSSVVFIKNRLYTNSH
UniProt O43395: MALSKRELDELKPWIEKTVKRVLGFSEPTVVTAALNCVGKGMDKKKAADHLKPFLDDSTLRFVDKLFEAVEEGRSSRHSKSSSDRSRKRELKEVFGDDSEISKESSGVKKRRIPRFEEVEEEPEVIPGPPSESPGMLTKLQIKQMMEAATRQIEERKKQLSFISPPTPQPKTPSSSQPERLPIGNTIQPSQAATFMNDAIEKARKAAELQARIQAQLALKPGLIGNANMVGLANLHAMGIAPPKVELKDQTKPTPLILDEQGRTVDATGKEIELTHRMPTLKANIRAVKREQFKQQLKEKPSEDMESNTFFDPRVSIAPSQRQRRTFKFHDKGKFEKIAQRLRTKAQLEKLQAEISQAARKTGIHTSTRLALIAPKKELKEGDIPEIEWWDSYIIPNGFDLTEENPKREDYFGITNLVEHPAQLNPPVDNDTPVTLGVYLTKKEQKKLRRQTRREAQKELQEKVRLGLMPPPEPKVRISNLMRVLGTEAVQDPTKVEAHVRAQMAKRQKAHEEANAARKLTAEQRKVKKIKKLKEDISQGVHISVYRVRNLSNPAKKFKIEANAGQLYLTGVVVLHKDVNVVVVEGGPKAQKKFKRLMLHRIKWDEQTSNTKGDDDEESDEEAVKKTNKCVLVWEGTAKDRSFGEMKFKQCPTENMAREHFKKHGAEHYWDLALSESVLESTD
UniProt O15234, whole entry: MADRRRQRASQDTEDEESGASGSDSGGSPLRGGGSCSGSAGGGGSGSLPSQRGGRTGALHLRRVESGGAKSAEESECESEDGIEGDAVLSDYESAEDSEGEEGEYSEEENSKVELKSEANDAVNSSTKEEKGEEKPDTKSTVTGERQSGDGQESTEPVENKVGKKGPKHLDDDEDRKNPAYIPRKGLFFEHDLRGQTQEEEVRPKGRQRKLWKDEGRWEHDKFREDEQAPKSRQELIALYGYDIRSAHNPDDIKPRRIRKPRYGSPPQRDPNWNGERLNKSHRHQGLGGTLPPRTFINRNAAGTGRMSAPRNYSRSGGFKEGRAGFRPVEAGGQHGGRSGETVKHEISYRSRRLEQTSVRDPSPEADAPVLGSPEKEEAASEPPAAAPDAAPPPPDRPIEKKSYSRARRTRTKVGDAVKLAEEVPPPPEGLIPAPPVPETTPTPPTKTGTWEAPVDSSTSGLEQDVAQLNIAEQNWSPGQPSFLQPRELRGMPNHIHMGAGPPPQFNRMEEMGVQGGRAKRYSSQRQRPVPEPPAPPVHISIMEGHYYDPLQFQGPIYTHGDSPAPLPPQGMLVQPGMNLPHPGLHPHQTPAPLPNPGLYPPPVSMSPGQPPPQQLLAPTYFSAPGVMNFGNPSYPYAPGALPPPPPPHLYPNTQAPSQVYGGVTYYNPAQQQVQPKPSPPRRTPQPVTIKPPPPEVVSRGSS
UniProt O43615: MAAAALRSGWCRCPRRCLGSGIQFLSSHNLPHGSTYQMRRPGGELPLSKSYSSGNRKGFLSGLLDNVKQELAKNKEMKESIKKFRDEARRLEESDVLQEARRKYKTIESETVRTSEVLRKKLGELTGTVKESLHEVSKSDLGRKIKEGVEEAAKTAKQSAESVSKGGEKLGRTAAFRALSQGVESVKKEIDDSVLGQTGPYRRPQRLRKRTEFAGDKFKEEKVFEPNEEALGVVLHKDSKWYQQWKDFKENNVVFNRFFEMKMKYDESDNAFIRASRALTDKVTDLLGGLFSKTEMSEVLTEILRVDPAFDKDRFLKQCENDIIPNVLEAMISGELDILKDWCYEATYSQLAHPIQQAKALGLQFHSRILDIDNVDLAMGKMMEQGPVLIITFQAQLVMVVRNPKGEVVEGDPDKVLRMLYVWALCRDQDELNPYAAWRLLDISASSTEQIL
UniProt O00443: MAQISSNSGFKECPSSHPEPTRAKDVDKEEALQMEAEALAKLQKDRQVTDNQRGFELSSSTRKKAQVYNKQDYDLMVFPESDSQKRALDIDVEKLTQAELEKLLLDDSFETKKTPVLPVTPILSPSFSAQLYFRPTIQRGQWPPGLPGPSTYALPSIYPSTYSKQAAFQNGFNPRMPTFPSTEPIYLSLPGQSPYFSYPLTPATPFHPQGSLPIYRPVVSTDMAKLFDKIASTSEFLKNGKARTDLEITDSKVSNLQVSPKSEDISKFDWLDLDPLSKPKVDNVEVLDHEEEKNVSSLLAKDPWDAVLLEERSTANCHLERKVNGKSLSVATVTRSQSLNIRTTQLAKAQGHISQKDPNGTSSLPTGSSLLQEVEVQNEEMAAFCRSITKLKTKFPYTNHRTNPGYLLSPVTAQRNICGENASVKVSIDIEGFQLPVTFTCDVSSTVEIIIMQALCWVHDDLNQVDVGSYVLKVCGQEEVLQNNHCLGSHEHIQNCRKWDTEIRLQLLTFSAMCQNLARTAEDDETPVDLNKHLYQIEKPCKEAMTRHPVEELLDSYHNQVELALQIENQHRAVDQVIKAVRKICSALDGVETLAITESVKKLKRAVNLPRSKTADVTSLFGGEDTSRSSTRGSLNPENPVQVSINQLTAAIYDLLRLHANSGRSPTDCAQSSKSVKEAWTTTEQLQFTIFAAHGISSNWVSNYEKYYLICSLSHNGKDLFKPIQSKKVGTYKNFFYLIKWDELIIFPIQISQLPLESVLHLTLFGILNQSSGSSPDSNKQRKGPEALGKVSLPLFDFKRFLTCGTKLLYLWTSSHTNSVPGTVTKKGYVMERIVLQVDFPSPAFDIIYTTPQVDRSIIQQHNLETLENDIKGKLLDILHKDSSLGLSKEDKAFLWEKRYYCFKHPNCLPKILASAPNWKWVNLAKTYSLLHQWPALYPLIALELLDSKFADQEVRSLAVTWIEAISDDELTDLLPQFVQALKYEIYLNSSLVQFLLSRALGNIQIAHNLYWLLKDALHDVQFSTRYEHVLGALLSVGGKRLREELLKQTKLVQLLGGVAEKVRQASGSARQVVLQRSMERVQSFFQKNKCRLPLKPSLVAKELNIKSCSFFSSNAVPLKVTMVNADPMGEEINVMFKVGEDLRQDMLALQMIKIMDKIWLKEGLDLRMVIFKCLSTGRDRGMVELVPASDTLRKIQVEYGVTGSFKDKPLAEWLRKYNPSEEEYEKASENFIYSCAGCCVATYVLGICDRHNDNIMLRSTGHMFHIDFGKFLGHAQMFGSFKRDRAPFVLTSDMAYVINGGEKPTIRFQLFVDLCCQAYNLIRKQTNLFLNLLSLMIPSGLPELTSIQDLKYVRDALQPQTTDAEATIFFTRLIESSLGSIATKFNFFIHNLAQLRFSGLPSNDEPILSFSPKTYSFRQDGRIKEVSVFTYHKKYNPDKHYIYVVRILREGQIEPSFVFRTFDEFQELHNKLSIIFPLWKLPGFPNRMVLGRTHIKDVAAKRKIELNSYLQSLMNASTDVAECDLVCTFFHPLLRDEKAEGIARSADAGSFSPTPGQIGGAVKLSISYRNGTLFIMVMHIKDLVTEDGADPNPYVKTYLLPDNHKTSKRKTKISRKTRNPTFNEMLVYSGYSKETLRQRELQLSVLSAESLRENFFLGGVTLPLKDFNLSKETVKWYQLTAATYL

Compound: Nc1ncnc2c1ncn2[C@@H]1O[C@H](COP(=O)(O)OP(=O)(O)OP(=O)(O)O)[C@@H](O)[C@H]1O [adenosine triphosphate]
Experiment: NP40-soluble protein abundance relative to vehicle (solubility fold change) (ratio); higher = more soluble protein in presence of ATP
Method in brief: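 In three independent experiments, Jurkat crude lysate made by Dounce homogenisation was treated for 10 min at room temperature and then 3 min at 37 °C with eight concentrations ranging from 0.1 to 10 mM. It was then solubilised with 0.8% NP40 plus benzonase for 60 min at 4 °C and ultracentrifuged. The supernatant was TMT-labelled for LC-MS/MS, and each value is the fold change against the detergent-processed vehicle for the same replicate, using vsn-normalised intensities.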

Target	NP40-soluble protein abundance (concentration: 1mM)	NP40-soluble protein abundance (concentration: 2mM)	NP40-soluble protein abundance (concentration: 4mM)	NP40-soluble protein abundance (concentration: 6mM)	NP40-soluble protein abundance (concentration: 8mM)	NP40-soluble protein abundance (concentration: 10mM)
RRP9 (UniProt O43818)	1.03 ± 0.052	1.147 ± 0.0084	1.22 ± 0.029	1.38 ± 0.033	1.42 ± 0.044	1.62 ± 0.042
SMARCA5 (UniProt O60264)	1.17 ± 0.028	1.2 ± 0.024	1.2 ± 0.03	1.23 ± 0.016	1.27 ± 0.018	1.26 ± 0.032
CDC7 (UniProt O00311)	1.16 ± 0.03	1.21 ± 0.086	1.26 ± 0.078	1.2 ± 0.15	1.19 ± 0.03	1.28 ± 0.093
UniProt O43439-5|O43439 and related entries	0.983 ± 0.075	0.97 ± 0.023	1.03 ± 0.056	1.02 ± 0.12	0.964 ± 0.018	0.997 ± 0.036
AGPS (UniProt O00116)	0.998 ± 0.047	1.01 ± 0.053	0.973 ± 0.023	0.962 ± 0.071	0.992 ± 0.017	0.972 ± 0.059
UniProt O00628 and related entries	1.07 ± 0.031	1.03 ± 0.038	1.13 ± 0.13	0.982 ± 0.14	1.1 ± 0.062	1.09 ± 0.11
UniProt O14975 and related entries	1.13 ± 0.17	1.09 ± 0.11	1.12 ± 0.11	1.02 ± 0.093	1.1 ± 0.028	1.14 ± 0.03
UniProt O43504	1 ± 0.11	0.941 ± 0.098	0.966 ± 0.088	1.04 ± 0.077	0.962 ± 0.031	0.878 ± 0.11
YKT6 (UniProt O15498)	0.989 ± 0.03	0.9545 ± 0.007	0.916 ± 0.017	1.01 ± 0.041	0.922 ± 0.035	0.932 ± 0.042
CLIC1 (UniProt O00299)	0.833 ± 0.23	0.953 ± 0.15	0.857 ± 0.2	0.901 ± 0.094	0.95 ± 0.05	0.878 ± 0.021
BACH1 (UniProt O14867)	0.898 ± 0.04	0.921 ± 0.011	0.916 ± 0.033	0.97 ± 0.06	0.888 ± 0.0097	0.91 ± 0.057
UniProt O43172-2|O43172	1.08 ± 0.027	1.061 ± 0.0038	1.08 ± 0.022	1.14 ± 0.022	1.2 ± 0.018	1.21 ± 0.043
DENR (UniProt O43583)	0.941 ± 0.057	0.92 ± 0.027	0.913 ± 0.018	0.886 ± 0.037	0.895 ± 0.037	0.848 ± 0.086
SLC9A3R1 (UniProt O14745)	0.917 ± 0.033	0.9056 ± 0.0088	0.876 ± 0.012	0.94 ± 0.017	0.884 ± 0.035	0.865 ± 0.035
POLR3A (UniProt O14802)	1.06 ± 0.035	1.01 ± 0.0059	1.04 ± 0.06	1 ± 0.04	1.08 ± 0.069	1.05 ± 0.032
OPLAH (UniProt O14841)	1.03 ± 0.022	1 ± 0.099	1 ± 0.047	0.984 ± 0.073	0.989 ± 0.045	0.988 ± 0.029
UniProt O15037	0.951 ± 0.095	0.921 ± 0.13	0.901 ± 0.11	0.903 ± 0.19	0.759 ± 0.25	0.916 ± 0.12

Target	NP40-soluble protein abundance (concentration: 1mM)	NP40-soluble protein abundance (concentration: 2mM)	NP40-soluble protein abundance (concentration: 4mM)	NP40-soluble protein abundance (concentration: 6mM)	NP40-soluble protein abundance (concentration: 8mM)	NP40-soluble protein abundance (concentration: 10mM)
UniProt O60271 and related entries	0.953 ± 0.039	0.954 ± 0.031	0.919 ± 0.035	0.971 ± 0.033	0.929 ± 0.02	0.944 ± 0.012
UniProt O43324 and related entries	0.969 ± 0.056	0.897 ± 0.052	0.864 ± 0.058	0.879 ± 0.2	0.954 ± 0.13	0.842 ± 0.11
PRPF3 (UniProt O43395)	1.05 ± 0.041	1.05 ± 0.054	1.11 ± 0.032	1.18 ± 0.065	1.22 ± 0.052	1.28 ± 0.04
CASC3 (UniProt O15234)	0.994 ± 0.098	1 ± 0.056	1.01 ± 0.073	1.06 ± 0.096	1.05 ± 0.045	1.04 ± 0.017
TIMM44 (UniProt O43615)	0.95 ± 0.034	0.954 ± 0.032	0.946 ± 0.028	0.954 ± 0.041	0.954 ± 0.043	0.946 ± 0.042
POLR1C (UniProt O15160)	1.05 ± 0.034	1.02 ± 0.014	1.053 ± 0.0076	1.03 ± 0.033	1.05 ± 0.015	1.04 ± 0.041
UniProt O00499-2|O00499-6|O00499-4|O00499-7|O00499-9	0.985 ± 0.067	0.988 ± 0.039	0.959 ± 0.029	1.02 ± 0.034	0.9248 ± 0.0063	0.919 ± 0.041
UniProt O43166-2|O43166-3|O43166	1.14 ± 0.18	1.02 ± 0.029	1.165 ± 0.008	1.18 ± 0.082	1.31 ± 0.06	1.36 ± 0.085
PIK3C2A (UniProt O00443)	0.969 ± 0.022	0.944 ± 0.045	0.91 ± 0.088	0.87 ± 0.076	0.868 ± 0.2	0.884 ± 0.21
OIP5 (UniProt O43482)	0.9 ± 0.091	0.928 ± 0.062	0.917 ± 0.068	0.876 ± 0.14	0.838 ± 0.13	0.929 ± 0.085
UniProt O43399 and related entries	0.867 ± 0.1	0.832 ± 0.12	0.822 ± 0.097	0.861 ± 0.12	0.805 ± 0.04	0.75 ± 0.14
UniProt O14763 and related entries	1.04 ± 0.054	1.03 ± 0.14	0.988 ± 0.041	0.9493 ± 0.0016	0.814 ± 0.062	0.898 ± 0.041
UniProt O43903	0.936 ± 0.038	0.978 ± 0.044	0.964 ± 0.022	0.978 ± 0.026	0.947 ± 0.043	0.964 ± 0.054
XPOT (UniProt O43592)	0.992 ± 0.092	0.981 ± 0.064	0.964 ± 0.052	0.889 ± 0.11	0.945 ± 0.045	0.983 ± 0.066
UniProt O43929	1.1 ± 0.13	1.05 ± 0.064	1.07 ± 0.046	1 ± 0.11	1.09 ± 0.036	1.05 ± 0.046
XPO1 (UniProt O14980)	0.987 ± 0.11	0.977 ± 0.076	0.947 ± 0.065	0.905 ± 0.1	0.973 ± 0.046	0.961 ± 0.063
UniProt O00139 and related entries	0.932 ± 0.034	0.964 ± 0.023	0.976 ± 0.025	1 ± 0.043	1.03 ± 0.027	1.02 ± 0.02

Reformatted in CSV form: part of the list above.
Target,NP40-soluble protein abundance (concentration: 1mM),NP40-soluble protein abundance (concentration: 2mM),NP40-soluble protein abundance (concentration: 4mM),NP40-soluble protein abundance (concentration: 6mM),NP40-soluble protein abundance (concentration: 8mM),NP40-soluble protein abundance (concentration: 10mM)
UniProt O00499-2|O00499-6|O00499-4|O00499-7|O00499-9,0.985 ± 0.067,0.988 ± 0.039,0.959 ± 0.029,1.02 ± 0.034,0.9248 ± 0.0063,0.919 ± 0.041
UniProt O43166-2|O43166-3|O43166,1.14 ± 0.18,1.02 ± 0.029,1.165 ± 0.008,1.18 ± 0.082,1.31 ± 0.06,1.36 ± 0.085
